Legend:
[1] = tested on: patient-derived GNS166 stem cells; assay: Dose-response MTT cell viability assay, GNS166; format: cell-based; conditions: Homo sapiens, 72 h, Fig. 2d
Protocol: (§1) Glioma-cell lines were seeded at a density of 1.5 × 10^3 cells/well in 96-well plates, with six replicates per condition. […] Cell viability was determined by MTT assay at 72 h after treatment. For this, MTT (3-(4,5-dimethyl-2-thiazolyl)-2,5-diphenyl-2H-tetrazolium bromide) reagent was added and, after a 3 h incubation at 37 °C and 5% CO2, media was removed and the formed crystals were resuspended in DMSO. Plates were measured at 570 nm using a spectrophotometer. Results were analyzed by GraphPad Prism software and IC50 values were calculated.

[2] = tested on: U373-MG cells; assay: Dose-response MTT cell viability assay, U373-MG; format: cell-based; conditions: Homo sapiens, 72 h, Fig. 2d
Protocol: as §1

[3] = tested on: A172 cells; assay: Dose-response MTT cell viability assay, A172; format: cell-based; conditions: Homo sapiens, A 172, 72 h, Fig. 2d
Protocol: as §1

[4] = tested on: T98-G cells; assay: Dose-response MTT cell viability assay, T98-G; format: cell-based; conditions: Homo sapiens, T98G, 72 h, Fig. 2d
Protocol: as §1

[5] = tested on: GNS166 cells; assay: Microarray whole-transcriptome gene expression analysis; format: cell-based, human
Protocol: Whole-transcriptome analysis was performed from 300 ng of RNA using HuGene-2_0-st-v1 expression array (Affymetrix), which covers 48,226 transcripts. Raw data were first checked for quality purposes through the Affymetrix® Expression Console™ Software v1.4.1 and TAC software v4.0. Then, data were normalized using the Robust Multi-array Average (RMA) and analyzed by Limma tool. Probesets with FDR-corrected p-values smaller than 0.05 were selected. Functional enrichment on Gene Ontology (GO) biological processes was performed on a smaller subset of the differentially expressed genes (corrected p-value < 0.001) by means of Broad Institute GSEA. […] The data that support this study have been deposited in NCBI´s Gene Expression Omnibus and are accessible through GEO series accession number GSE143887.

[6] = tested on: U251-MG cells; assay: Dose-response MTT cell viability assay, U251-MG; format: cell-based; conditions: Homo sapiens, U-251, 72 h, Fig. 2d
Protocol: as §1

[7] = tested on: U87-MG cells; assay: Dose-response MTT cell viability assay, U87-MG; format: cell-based; conditions: Homo sapiens, U-87 MG, 72 h, Fig. 2d
Protocol: as §1

[8] = tested on: patient-derived GNS179 stem cells; assay: Dose-response MTT cell viability assay, GNS179; format: cell-based; conditions: Homo sapiens, 72 h, Fig. 2d
Protocol: as §1

[9] = sheet DMSO-SAHA_DOWN, microarray

O=C(CCCCCCC(=O)Nc1ccccc1)NO [SAHA, Suberoylanilide hydroxamic acid]
IC50 [1]: 41.1 µM | IC50 [2]: 47.1 µM | IC50 [3]: 4.29 µM | IC50 [4]: 4.69 µM | logFC PKIA ([5]; 5 µM SAHA vs DMSO, transcript TC0800008028.hg.1): 2.2097 | logFC, unannotated transcript ([5]; DMSO vs SAHA, downregulated, transcript 23074032): -2.205 | logFC UFC1 ([5]; DMSO vs SAHA, downregulated, transcript TC0100010334.hg.1): -2.209 | logFC MZT2B ([5]; DMSO vs SAHA, downregulated, transcript TC0200009281.hg.1): -1.123 | logFC HIST2H2BF (transcript TC0100015696.hg.1) [5, 9]: -1.121 | logFC NCAPG (transcript TC0400006994.hg.1) [5, 9]: -0.9992 | logFC RNH1 (transcript TC1100009674.hg.1) [5, 9]: -0.9987 | logFC CCNYL1 ([5]; transcript TC0200010615.hg.1, DMSO vs 5 µM SAHA, upregulated genes): 1.118 | logFC GNPTAB ([5]; transcript TC1200011711.hg.1, DMSO vs 5 µM SAHA, upregulated genes): 1.119 | IC50 [6]: 22.1 µM | IC50 [7]: 9.99 µM | IC50 [8]: 11.2 µM
